Test [1] deals with full length mouse RANKL on HEK 293T cells (mouse) (UniProt O35235). Kind of test: binding of soluble OPG to fixed cells, bound OPG measured by ELISA of the cell lysate; differentiated MC3T3-E1 cells, or HEK 293T cells transfected with full length mouse or human RANKL; 1 M NaCl wash, fixed with 70% ethanol; 100 ng OPG in PBS with or without 1 uM S3-15, 30 min, 4 °C; only the binder purified. On the technique in general: An ELISA detects its analyte on a solid surface through an enzyme-linked reagent.

Amino acid sequences for entries named in this document (tags omitted).
UniProt O35235: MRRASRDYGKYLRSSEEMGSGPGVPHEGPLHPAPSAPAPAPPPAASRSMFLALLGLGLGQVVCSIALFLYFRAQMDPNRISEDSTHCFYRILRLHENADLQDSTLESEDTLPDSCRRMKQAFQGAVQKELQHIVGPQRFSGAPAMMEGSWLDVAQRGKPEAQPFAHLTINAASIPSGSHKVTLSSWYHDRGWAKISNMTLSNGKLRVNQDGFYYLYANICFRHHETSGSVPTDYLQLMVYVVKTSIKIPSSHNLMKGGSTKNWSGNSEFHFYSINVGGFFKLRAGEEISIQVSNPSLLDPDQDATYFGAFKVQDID

Test [2] concerns the target mRANKL on differentiated MC3T3-E1 cells (mouse (endogenous in MC3T3-E1)) (UniProt O35235). The test is described as above.
Test [3] deals with T1, full length human RANKL on HEK 293T cells (human) (UniProt O14788).
T1 sequence: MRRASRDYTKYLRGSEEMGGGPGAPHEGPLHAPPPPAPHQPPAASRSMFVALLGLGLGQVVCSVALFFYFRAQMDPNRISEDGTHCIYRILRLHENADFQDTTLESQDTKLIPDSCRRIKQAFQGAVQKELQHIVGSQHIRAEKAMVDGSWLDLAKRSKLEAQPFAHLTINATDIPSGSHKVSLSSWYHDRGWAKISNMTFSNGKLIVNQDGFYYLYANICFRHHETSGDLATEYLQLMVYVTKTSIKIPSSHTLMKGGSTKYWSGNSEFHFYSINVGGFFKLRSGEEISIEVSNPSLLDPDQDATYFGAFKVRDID
The test is described as above.

Test [4] addresses T2, human sRANKL with his-sumo tag (human) (UniProt O14788).
T2 sequence: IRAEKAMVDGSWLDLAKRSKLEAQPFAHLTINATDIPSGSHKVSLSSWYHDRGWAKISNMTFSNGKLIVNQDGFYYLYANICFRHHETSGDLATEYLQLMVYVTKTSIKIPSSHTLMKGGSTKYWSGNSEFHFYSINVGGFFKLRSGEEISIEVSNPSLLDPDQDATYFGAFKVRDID
Kind of test: pull-down; 200 ng his-sumo human sRANKL held on Ni gel; 100 ng Fc tag human OPG in PBS, 4 °C, 30 min, with S3-15 at 0, 10, 1 and 0.3 uM; bound OPG measured by OPG ELISA kit; both purified.

These are yes or no findings as the source states them, for the method shown. Some entries that bind do so weakly or less than the wild type. For some of these results: Where a sequence is shown, tags or fusion partners need not be part of it.

B1: mouse OPG (Sino, China) (receptor, UniProt O08712 22-401)
chain: ETLPPKYLHYDPETGHQLLCDKCAPGTYLKQHCTVRRKTLCVPCPDHSYTDSWHTSDECVYCSPVCKELQSVKQECNRTHNRVCECEEGRYLEIEFCLKHRSCPPGSGVVQAGTPERNTVCKKCPDGFFSGETSSKAPCIKHTNCSTFGLLLIQKGNATHDNVCSGNREATQKCGIDVTLCEEAFFRFAVPTKIIPNWLSVLVDSLPGTKVNAESVERIKRRHSSQEQTFQLLKLWKHQNRDQEMVKKIIQDIDLCESSVQRHLGHSNLTTEQLLALMESLPGKKISPEEIERTRKTCKSSEQLLKLLSLWRIKNGDQDTLKGLMYALKHLKTSHFPKTVTHSLRKTMRFLHSFTMYRLYQKLFLEMIGNQVQSVKISCL
Regarding B1, the binding result in test [1] and in test [2] was “binds” in each case.

B2: OPG added to HEK 293T cells with human RANKL (receptor, UniProt O08712 22-401)
chain: ETLPPKYLHYDPETGHQLLCDKCAPGTYLKQHCTVRRKTLCVPCPDHSYTDSWHTSDECVYCSPVCKELQSVKQECNRTHNRVCECEEGRYLEIEFCLKHRSCPPGSGVVQAGTPERNTVCKKCPDGFFSGETSSKAPCIKHTNCSTFGLLLIQKGNATHDNVCSGNREATQKCGIDVTLCEEAFFRFAVPTKIIPNWLSVLVDSLPGTKVNAESVERIKRRHSSQEQTFQLLKLWKHQNRDQEMVKKIIQDIDLCESSVQRHLGHSNLTTEQLLALMESLPGKKISPEEIERTRKTCKSSEQLLKLLSLWRIKNGDQDTLKGLMYALKHLKTSHFPKTVTHSLRKTMRFLHSFTMYRLYQKLFLEMIGNQVQSVKISCL
As to B2, the binding result in test [3] is “binds”.

B3: Fc tag human OPG (Fc fusion, UniProt O00300 22-401)
chain: ETFPPKYLHYDEETSHQLLCDKCPPGTYLKQHCTAKWKTVCAPCPDHYYTDSWHTSDECLYCSPVCKELQYVKQECNRTHNRVCECKEGRYLEIEFCLKHRSCPPGFGVVQAGTPERNTVCKRCPDGFFSNETSSKAPCRKHTNCSVFGLLLTQKGNATHDNICSGNSESTQKCGIDVTLCEEAFFRFAVPTKFTPNWLSVLVDNLPGTKVNAESVERIKRQHSSQEQTFQLLKLWKHQNKDQDIVKKIIQDIDLCENSVQRHIGHANLTFEQLRSLMESLPGKKVGAEDIEKTIKACKPSDQILKLLSLWRIKNGDQDTLKGLMHALKHSKTYHFPKTVTQSLKKTIRFLHSFTMYKLYQKLFLEMIGNQVQSVKISCL
As to B3, the binding result in test [4] was “binds”.

These data come from publication PMC9468151, “Identification of a binding site on soluble RANKL that can be targeted to inhibit soluble RANK-RANKL interactions and treat osteoporosis” (Nature Communications, 2022).
